Several values for one entry are separate records, joined by “and”; a condition that tells them apart may be missing. Identical values can stand only once. Some of the results follow. Shown are side measurements of this screen, not its main read-out; they come without a call. Compounds called inactive in the main read-out are mostly missing here. The note in brackets gives the kind of curve behind each potency; many fits are weak.
Assay: qHTS Assay for Modulators of Lamin A Splicing
Conditions: HeLa LMNA splicing GFP/RFP minigene ratio, 48 h
Procedure, shortened: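 S3 HeLa cells stably expressing lamin A-EGFP splicing minigene plus DsRed2, 600 cells/well, 48 h compound exposure at 37C. Laser-scanning cytometry; analysed as GFP (500-530 nm)/RFP (575-640 nm) total intensity ratio; 0.5% DMSO vehicle.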

[1] = measured here: GFP splicing reporter channel
[2] = measured here: RFP viability control channel

SMILES | AC50 [1] | AC50 [2]
CS(=O)(=O)c1cnc(-c2cccnc2)nc1N | 0.0501 µM [falling, full curve, poor fit] | 0.0126 µM [falling, full curve, poor fit]
Oc1ccc(Nc2nc3ccccc3nc2Nc2ccc(O)cc2)cc1 | 35.5 µM [falling, single point] | 6.31 µM [falling, single point]
O=C(NC(NC(=S)Nc1ccc(Cl)cc1Cl)C(Cl)(Cl)Cl)c1cccc([N+](=O)[O-])c1 (configuration not stated) | 12.6 µM [falling, partial curve] | 12.6 µM [falling, partial curve]
CCCCSCCCNC(=O)Nc1ccc(CC)cc1 | – | 2.82 µM [falling, partial curve]
Oc1c(N=Nc2ccccn2)ccc2ccccc12 | 0.447 µM [falling, single point] | 0.126 µM [falling, partial curve]
CC(C)C(=O)N1CCN(c2ccc(NC(=O)c3ccc4c(c3)OCCO4)cc2Cl)CC1 | 35.5 µM [falling, single point] | 2.51 µM [falling, partial curve]
CC1CCN(CC(=O)Nc2ccc(N3CCCCCC3)cc2)CC1 | 11.2 µM [falling, partial curve, poor fit] | –
O=C(CN1CCC(c2nc3ccccc3s2)CC1)NCc1ccccc1 | 20 µM [rising, single point] | 22.4 µM [rising, single point]
COC1(OC)N=C(N)C2(C#N)C(c3ccc4c(c3)OCO4)C12C#N (configuration not stated) | – | 5.62 µM [falling, partial curve, poor fit]
O=C(c1ccco1)N(CCC(c1ccccc1)c1ccco1)Cc1ccc(F)cc1 (configuration not stated) | – | 17.8 µM [falling, partial curve]
Cc1ccc2c(c1)nnn2C1CCN(S(=O)(=O)c2cccc(S(=O)(=O)N(C)C)c2)CC1 | – | 10 µM [rising, partial curve]
Cn1cc(CN2CCCC(CO)(Cc3ccccc3)C2)c2ccccc21 (configuration not stated) | 17.8 µM [falling, partial curve] | 1 µM [falling, full curve, poor fit]
Oc1cccc2ccc(/C=C/c3c(F)cccc3Cl)nc12 | – | 12.6 µM [rising, partial curve, poor fit]
N#CC1=C(N)NC(=S)C(C(N)=O)C1c1ccc(Cl)cc1Cl (configuration not stated) | – | 17.8 µM [rising, single point]
CCOC(=O)c1c(C)oc2ccc(N(C(=O)c3ccncc3)S(=O)(=O)c3ccc(Br)cc3)cc12 | – | 7.94 µM [falling, single point]
Cc1ccc(S(=O)(=O)N2CCC(=O)N(C(COCc3cccc(C(F)(F)F)c3)C(C)C)CC2)cc1 (configuration not stated) | 11.2 µM [rising, single point] | 20 µM [rising, single point]
O=c1[nH][nH]c(-c2ccccc2O)c1C(C[N+](=O)[O-])c1ccc(Br)cc1 (configuration not stated) | 10 µM [rising, partial curve, poor fit] | 17.8 µM [rising, partial curve, poor fit]
CN1c2ccccc2C(C)(C)C12CC(c1ccc(S(=O)(=O)N3CCCCC3)cc1)=NO2 (configuration not stated) | – | 2 µM [rising, full curve]
Cc1cccc(NC(=O)Cn2c(=O)nc(-c3ccccc3)c3ccccc32)c1C | – | 3.16 µM [rising, partial curve, poor fit]
COc1ccc(C2=NOC(C(=O)Nc3cccnc3)C2)cc1 (configuration not stated) | – | 31.6 µM [rising, single point]
Cc1nn(Cc2ccc(Cl)cc2)c(C)c1NC(=O)c1noc2c1CCCCC2 | 35.5 µM [rising, single point] | 31.6 µM [rising, single point]
CCN(CC)S(=O)(=O)c1ccc(C)c(NC(=O)CSc2nc3ccccc3[nH]2)c1 | – | 22.4 µM [rising, partial curve]
CCNC(=S)N(CCc1c(C)[nH]c2ccccc12)Cc1cc(OC)c(OC)c(OC)c1 | – | 14.1 µM [rising, partial curve]
O=C(Nc1ccc(F)c(Cl)c1)c1ccc2c(=O)n3c(nc2c1)CCCCC3 | 3.16 µM [rising, full curve] | 3.98 µM [rising, full curve]
CCOC(=O)c1c(NC(=O)/C=C/C(=O)O)sc(C)c1-c1ccc(Cl)cc1 | – | 2 µM [falling, partial curve, poor fit]
CC1CC(NC(=O)N(C)C)N(C)C(=O)N1 (configuration not stated) | 11.2 µM [falling, partial curve, poor fit] | 7.94 µM [falling, partial curve, poor fit]

SMILES | AC50 [1] | AC50 [2]
Cc1nn(Cc2ccc(F)cc2)c(C)c1NC(=O)c1cc(-c2ccc3c(c2)OCO3)on1 | – | 0.891 µM [falling, full curve, poor fit]
O=S(=O)(Nc1ccc(-c2ccc(N3CCCC3)nn2)cc1)c1cccc(C(F)(F)F)c1 | 0.00316 µM [falling, full curve, poor fit] | 0.00355 µM [falling, full curve, poor fit]
CC(C)N(CCC(=O)c1ccc2ccccc2c1)Cc1ccccc1 | 3.55 µM [falling, full curve] | 3.55 µM [falling, full curve]
COc1cccc(NC(=O)Cc2nc(-c3ccccc3)sc2-c2ccc(C)cc2)c1 | 35.5 µM [rising, single point] | 35.5 µM [rising, single point]
CCOc1ccc(NC(=O)CN2CCN(CC(=O)Nc3ccccc3OCC)CC2)cc1 | 0.794 µM [rising, full curve, poor fit] | 0.794 µM [rising, full curve, poor fit]
CC1CCCCN1C(=O)CCc1nnc(Cc2c[nH]c3ccccc23)o1 (configuration not stated) | 0.0224 µM [falling, full curve, poor fit] | 1.12 µM [falling, full curve, poor fit]
Cc1nn(Cc2ccc(C(=O)Nc3nccs3)cc2)c(C)c1Cl | 12.6 µM [rising, partial curve] | 15.8 µM [rising, partial curve]
Cc1ccc(NC(=S)Nc2ccc(C(C)C)cc2)cc1S(=O)(=O)N1CCCCCC1 | 8.91 µM [rising, partial curve] | 11.2 µM [rising, partial curve]
Cc1ccc(Nc2nnc(SCc3nc4ccccc4c(=O)[nH]3)s2)cc1 | 3.98 µM [rising, full curve] | –
Cc1ccccc1N1CCN(c2ncnc3c2cnn3Cc2ccc(Cl)cc2)CC1 | – | 11.2 µM [rising, partial curve]
Cc1csc(SCC(=O)Nc2ccc(S(=O)(=O)N3CCCC3)cc2)n1 | 12.6 µM [rising, single point] | –
CCOc1ccc(S(=O)(=O)Nc2ccccc2C(=O)NCc2ccco2)cc1 | 11.2 µM [rising, partial curve, poor fit] | 6.31 µM [rising, partial curve, poor fit]
C=CCNC(=S)N/N=C(\C)c1ccccn1 | 15.8 µM [falling, single point] | –
Clc1ccc(OC2CCN(Cc3nc(CC4CC4)no3)CC2)cc1 | 0.141 µM [falling, single point] | 0.158 µM [falling, full curve, poor fit]
Cc1cccc(-n2ncc3c(NCc4ccccc4)ncnc32)c1 | – | 7.08 µM [rising, full curve, poor fit]
Cc1cc(N/N=C/c2ccccc2Cl)nc(NCc2ccccc2)n1 | 35.5 µM [rising, single point] | 35.5 µM [rising, single point]
O=C(Nc1ccc2oc(-c3ccccc3F)nc2c1)c1ccc2c(c1)OCCO2 | 14.1 µM [falling, single point] | 17.8 µM [falling, single point]
CCc1ccc(C(=O)OCC(=O)NCC(F)(F)F)cc1 | 0.00794 µM [rising, full curve, poor fit] | 0.00447 µM [rising, full curve, poor fit]
Cc1ccc(C(=O)c2c(NC(=O)CSc3nnc(N)s3)sc3c2CCCC3)cc1 | – | 12.6 µM [rising, partial curve]
COc1ccc(S(=O)(=O)N(C(C)=O)c2ccc(OC(C)=O)c3ccccc23)cc1[N+](=O)[O-] | 22.4 µM [falling, single point] | –
NC(=O)c1ccc(C(F)(F)F)n(Cc2ccccc2Cl)c1=O | 35.5 µM [rising, single point] | –
Cc1cc(C(=O)COC(=O)c2nccnc2N)c(C)n1C | 12.6 µM [rising, single point] | –
CC(=O)/C(N=Nc1ccc2c(c1)OCO2)=C(\C)O | – | 35.5 µM [falling, single point]
Fc1ccc(Cn2c(-c3cccc(Br)c3)nc3ccccc32)cc1 | – | 11.2 µM [rising, single point]
Cc1ccc(C(O)(C(=O)NNc2ccc3ccccc3n2)c2ccc(C)cc2)cc1 | – | 17.8 µM [rising, partial curve] and 22.4 µM [rising, single point]
CC(C)CC(=O)NC1(C(F)(F)F)NC(=O)N(c2ccccc2)C1=O (configuration not stated) | 7.94 µM [rising, partial curve, poor fit] | 0.708 µM [rising, partial curve]

From PubChem BioAssay AID1487 (National Center for Advancing Translational Sciences (NCATS), 2009)
